These are yes or no findings as the source states them, for the method shown. For some assays here: In cells and extracts the contact can be indirect. Some binding calls cover weakened binding; strength is not graded here. Sequences can lack the tags named with a protein.
T1: Prm1-myc (S. cerevisiae) (UniProt P53835)
T1 sequence: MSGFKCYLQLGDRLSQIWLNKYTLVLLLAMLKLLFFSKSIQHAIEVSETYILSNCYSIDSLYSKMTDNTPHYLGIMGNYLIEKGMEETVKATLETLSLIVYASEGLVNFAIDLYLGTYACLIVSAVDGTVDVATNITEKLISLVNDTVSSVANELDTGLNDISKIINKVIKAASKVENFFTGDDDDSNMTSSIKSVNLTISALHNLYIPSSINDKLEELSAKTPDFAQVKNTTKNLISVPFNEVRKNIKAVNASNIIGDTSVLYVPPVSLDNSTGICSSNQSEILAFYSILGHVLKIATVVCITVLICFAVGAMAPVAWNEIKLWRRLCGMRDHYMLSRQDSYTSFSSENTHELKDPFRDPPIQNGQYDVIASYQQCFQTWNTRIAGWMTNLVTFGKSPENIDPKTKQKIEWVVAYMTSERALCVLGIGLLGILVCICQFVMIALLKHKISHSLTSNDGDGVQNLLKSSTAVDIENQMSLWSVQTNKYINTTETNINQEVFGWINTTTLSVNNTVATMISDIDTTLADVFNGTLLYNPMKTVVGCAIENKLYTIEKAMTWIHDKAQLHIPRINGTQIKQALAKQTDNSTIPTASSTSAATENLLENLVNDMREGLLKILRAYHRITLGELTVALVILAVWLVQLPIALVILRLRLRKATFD


Tests used:
[1] = target: prm1-C308S-GFP (S. cerevisiae) (UniProt P53835); assay: non-reducing SDS-PAGE and Western blot; whole cell lysate, reducing agent omitted from the sample buffer; cells induced with 10 µg/ml α-factor for 90 min (GFP alleles, anti-GFP blot) or with galactose (HA-PRM1, anti-HA blot); shows only SDS-resistant covalent dimers
[2] = target: prm1-C329S-GFP (S. cerevisiae) (UniProt P53835); assay: as above
[3] = target: prm1-C377S-GFP (S. cerevisiae) (UniProt P53835); assay: as above
Prm1-myc (S. cerevisiae) [4] = target: T1, Prm1-myc (S. cerevisiae); assay: non-reducing SDS-PAGE and Western blot; blots of input and eluate of the α-myc immunoprecipitation from cells co-expressing PRM1-myc and a GFP-tagged mutant allele (Figure 4B); shows only covalent dimers
Prm1-myc (S. cerevisiae) [5] = target: T1, Prm1-myc (S. cerevisiae); assay: co-IP; tagged PRM1 alleles co-expressed in the same cells, mated on YPD at 30°C for 3 h; membranes solubilised in 1% Triton X-100 (50 mM HEPES, 100 mM KOAc, 2 mM Mg(OAc)2, 1 mM EDTA); α-myc (9E10) agarose, 2 h at 4°C; eluted with 2% SDS; α-myc and α-GFP blots
[6] = target: prm1-C424S-GFP (S. cerevisiae) (UniProt P53835); assay: non-reducing SDS-PAGE and Western blot; whole cell lysate, reducing agent omitted from the sample buffer; cells induced with 10 µg/ml α-factor for 90 min (GFP alleles, anti-GFP blot) or with galactose (HA-PRM1, anti-HA blot); shows only SDS-resistant covalent dimers

binding (Prm1-myc (S. cerevisiae) [4])	binding (Prm1-myc (S. cerevisiae) [5])	Binder	other results
		prm1-C308S-GFP (protein, UniProt P53835 1-661) MSGFKCYLQLGDRLSQIWLNKYTLVLLLAMLKLLFFSKSIQHAIEVSETYILSNCYSIDSLYSKMTDNTPHYLGIMGNYLIEKGMEETVKATLETLSLIVYASEGLVNFAIDLYLGTYACLIVSAVDGTVDVATNITEKLISLVNDTVSSVANELDTGLNDISKIINKVIKAASKVENFFTGDDDDSNMTSSIKSVNLTISALHNLYIPSSINDKLEELSAKTPDFAQVKNTTKNLISVPFNEVRKNIKAVNASNIIGDTSVLYVPPVSLDNSTGICSSNQSEILAFYSILGHVLKIATVVCITVLISFAVGAMAPVAWNEIKLWRRLCGMRDHYMLSRQDSYTSFSSENTHELKDPFRDPPIQNGQYDVIASYQQCFQTWNTRIAGWMTNLVTFGKSPENIDPKTKQKIEWVVAYMTSERALCVLGIGLLGILVCICQFVMIALLKHKISHSLTSNDGDGVQNLLKSSTAVDIENQMSLWSVQTNKYINTTETNINQEVFGWINTTTLSVNNTVATMISDIDTTLADVFNGTLLYNPMKTVVGCAIENKLYTIEKAMTWIHDKAQLHIPRINGTQIKQALAKQTDNSTIPTASSTSAATENLLENLVNDMREGLLKILRAYHRITLGELTVALVILAVWLVQLPIALVILRLRLRKATFD	binding [1]: binds
		prm1-C329S-GFP (protein, UniProt P53835 1-661) MSGFKCYLQLGDRLSQIWLNKYTLVLLLAMLKLLFFSKSIQHAIEVSETYILSNCYSIDSLYSKMTDNTPHYLGIMGNYLIEKGMEETVKATLETLSLIVYASEGLVNFAIDLYLGTYACLIVSAVDGTVDVATNITEKLISLVNDTVSSVANELDTGLNDISKIINKVIKAASKVENFFTGDDDDSNMTSSIKSVNLTISALHNLYIPSSINDKLEELSAKTPDFAQVKNTTKNLISVPFNEVRKNIKAVNASNIIGDTSVLYVPPVSLDNSTGICSSNQSEILAFYSILGHVLKIATVVCITVLICFAVGAMAPVAWNEIKLWRRLSGMRDHYMLSRQDSYTSFSSENTHELKDPFRDPPIQNGQYDVIASYQQCFQTWNTRIAGWMTNLVTFGKSPENIDPKTKQKIEWVVAYMTSERALCVLGIGLLGILVCICQFVMIALLKHKISHSLTSNDGDGVQNLLKSSTAVDIENQMSLWSVQTNKYINTTETNINQEVFGWINTTTLSVNNTVATMISDIDTTLADVFNGTLLYNPMKTVVGCAIENKLYTIEKAMTWIHDKAQLHIPRINGTQIKQALAKQTDNSTIPTASSTSAATENLLENLVNDMREGLLKILRAYHRITLGELTVALVILAVWLVQLPIALVILRLRLRKATFD	binding [2]: binds
		prm1-C377S-GFP (protein, UniProt P53835 1-661) MSGFKCYLQLGDRLSQIWLNKYTLVLLLAMLKLLFFSKSIQHAIEVSETYILSNCYSIDSLYSKMTDNTPHYLGIMGNYLIEKGMEETVKATLETLSLIVYASEGLVNFAIDLYLGTYACLIVSAVDGTVDVATNITEKLISLVNDTVSSVANELDTGLNDISKIINKVIKAASKVENFFTGDDDDSNMTSSIKSVNLTISALHNLYIPSSINDKLEELSAKTPDFAQVKNTTKNLISVPFNEVRKNIKAVNASNIIGDTSVLYVPPVSLDNSTGICSSNQSEILAFYSILGHVLKIATVVCITVLICFAVGAMAPVAWNEIKLWRRLCGMRDHYMLSRQDSYTSFSSENTHELKDPFRDPPIQNGQYDVIASYQQSFQTWNTRIAGWMTNLVTFGKSPENIDPKTKQKIEWVVAYMTSERALCVLGIGLLGILVCICQFVMIALLKHKISHSLTSNDGDGVQNLLKSSTAVDIENQMSLWSVQTNKYINTTETNINQEVFGWINTTTLSVNNTVATMISDIDTTLADVFNGTLLYNPMKTVVGCAIENKLYTIEKAMTWIHDKAQLHIPRINGTQIKQALAKQTDNSTIPTASSTSAATENLLENLVNDMREGLLKILRAYHRITLGELTVALVILAVWLVQLPIALVILRLRLRKATFD	binding [3]: binds
binds	binds	prm1-C545S-GFP (protein, UniProt P53835 1-661) MSGFKCYLQLGDRLSQIWLNKYTLVLLLAMLKLLFFSKSIQHAIEVSETYILSNCYSIDSLYSKMTDNTPHYLGIMGNYLIEKGMEETVKATLETLSLIVYASEGLVNFAIDLYLGTYACLIVSAVDGTVDVATNITEKLISLVNDTVSSVANELDTGLNDISKIINKVIKAASKVENFFTGDDDDSNMTSSIKSVNLTISALHNLYIPSSINDKLEELSAKTPDFAQVKNTTKNLISVPFNEVRKNIKAVNASNIIGDTSVLYVPPVSLDNSTGICSSNQSEILAFYSILGHVLKIATVVCITVLICFAVGAMAPVAWNEIKLWRRLCGMRDHYMLSRQDSYTSFSSENTHELKDPFRDPPIQNGQYDVIASYQQCFQTWNTRIAGWMTNLVTFGKSPENIDPKTKQKIEWVVAYMTSERALCVLGIGLLGILVCICQFVMIALLKHKISHSLTSNDGDGVQNLLKSSTAVDIENQMSLWSVQTNKYINTTETNINQEVFGWINTTTLSVNNTVATMISDIDTTLADVFNGTLLYNPMKTVVGSAIENKLYTIEKAMTWIHDKAQLHIPRINGTQIKQALAKQTDNSTIPTASSTSAATENLLENLVNDMREGLLKILRAYHRITLGELTVALVILAVWLVQLPIALVILRLRLRKATFD	
		prm1-C424S-GFP (protein, UniProt P53835 1-661) MSGFKCYLQLGDRLSQIWLNKYTLVLLLAMLKLLFFSKSIQHAIEVSETYILSNCYSIDSLYSKMTDNTPHYLGIMGNYLIEKGMEETVKATLETLSLIVYASEGLVNFAIDLYLGTYACLIVSAVDGTVDVATNITEKLISLVNDTVSSVANELDTGLNDISKIINKVIKAASKVENFFTGDDDDSNMTSSIKSVNLTISALHNLYIPSSINDKLEELSAKTPDFAQVKNTTKNLISVPFNEVRKNIKAVNASNIIGDTSVLYVPPVSLDNSTGICSSNQSEILAFYSILGHVLKIATVVCITVLICFAVGAMAPVAWNEIKLWRRLCGMRDHYMLSRQDSYTSFSSENTHELKDPFRDPPIQNGQYDVIASYQQCFQTWNTRIAGWMTNLVTFGKSPENIDPKTKQKIEWVVAYMTSERALSVLGIGLLGILVCICQFVMIALLKHKISHSLTSNDGDGVQNLLKSSTAVDIENQMSLWSVQTNKYINTTETNINQEVFGWINTTTLSVNNTVATMISDIDTTLADVFNGTLLYNPMKTVVGCAIENKLYTIEKAMTWIHDKAQLHIPRINGTQIKQALAKQTDNSTIPTASSTSAATENLLENLVNDMREGLLKILRAYHRITLGELTVALVILAVWLVQLPIALVILRLRLRKATFD	binding [6]: binds
binds	binds	prm1-C120S-GFP (protein, UniProt P53835 1-661) MSGFKCYLQLGDRLSQIWLNKYTLVLLLAMLKLLFFSKSIQHAIEVSETYILSNCYSIDSLYSKMTDNTPHYLGIMGNYLIEKGMEETVKATLETLSLIVYASEGLVNFAIDLYLGTYASLIVSAVDGTVDVATNITEKLISLVNDTVSSVANELDTGLNDISKIINKVIKAASKVENFFTGDDDDSNMTSSIKSVNLTISALHNLYIPSSINDKLEELSAKTPDFAQVKNTTKNLISVPFNEVRKNIKAVNASNIIGDTSVLYVPPVSLDNSTGICSSNQSEILAFYSILGHVLKIATVVCITVLICFAVGAMAPVAWNEIKLWRRLCGMRDHYMLSRQDSYTSFSSENTHELKDPFRDPPIQNGQYDVIASYQQCFQTWNTRIAGWMTNLVTFGKSPENIDPKTKQKIEWVVAYMTSERALCVLGIGLLGILVCICQFVMIALLKHKISHSLTSNDGDGVQNLLKSSTAVDIENQMSLWSVQTNKYINTTETNINQEVFGWINTTTLSVNNTVATMISDIDTTLADVFNGTLLYNPMKTVVGCAIENKLYTIEKAMTWIHDKAQLHIPRINGTQIKQALAKQTDNSTIPTASSTSAATENLLENLVNDMREGLLKILRAYHRITLGELTVALVILAVWLVQLPIALVILRLRLRKATFD	

From publication PMC2868043, “The Yeast Cell Fusion Protein Prm1p Requires Covalent Dimerization to Promote Membrane Fusion” (PLoS ONE, 2010)
